The other results are listed elsewhere or left out.
What was measured:
Experiment in all cases: log2 fold change, soluble protein after heating vs DMSO (PISA); higher = thermal stabilisation; K562 lysate, 10 uM; active = over 0.2 and 3.5 SD of the protein, either way, in both replicates (recomputed)
[1] = compound: C[C@H](C1=CC=C(C=C1)C(=O)NC2=C3C=CNC3=NC=C2)N
How it was run: (§1)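 K562 pellets were dounce-homogenised in PBS pH 7.4 containing 1 mM MgCl2, and the crude extract, at 1 mg/mL protein, was exposed to 10 μM compound for 30 min. Aliquots were heated for 3 min across 48°C-58°C, pooled, brought to 0.5% NP-40 at 4°C and spun at 21,000xg for 90 min, with the supernatant taken as soluble protein. TMTpro 16plex LC-MS/MS with equalised channel sums quantified that protein. Values are log-two fold changes in thermal stability relative to solvent controls, taken from duplicates.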

The chains behind the UniProt entries cited, without tags or fusion partners. Where a name states a change or a piece, a line headed by the entry shows the natural chain unless it says otherwise.
UniProt Q96D53: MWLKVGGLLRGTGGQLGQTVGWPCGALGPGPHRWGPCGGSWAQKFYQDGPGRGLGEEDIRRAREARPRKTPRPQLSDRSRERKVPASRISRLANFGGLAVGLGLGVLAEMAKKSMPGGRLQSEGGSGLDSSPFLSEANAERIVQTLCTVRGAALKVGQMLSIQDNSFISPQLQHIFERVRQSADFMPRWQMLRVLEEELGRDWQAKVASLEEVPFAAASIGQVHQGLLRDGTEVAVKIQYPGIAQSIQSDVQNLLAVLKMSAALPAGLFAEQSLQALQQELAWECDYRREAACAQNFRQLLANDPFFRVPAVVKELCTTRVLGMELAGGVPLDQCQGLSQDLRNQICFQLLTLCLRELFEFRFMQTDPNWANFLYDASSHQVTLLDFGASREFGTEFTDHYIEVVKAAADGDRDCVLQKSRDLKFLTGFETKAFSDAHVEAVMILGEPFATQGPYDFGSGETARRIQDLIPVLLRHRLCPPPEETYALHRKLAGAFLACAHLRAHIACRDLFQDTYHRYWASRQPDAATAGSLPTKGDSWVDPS
UniProt Q9P003: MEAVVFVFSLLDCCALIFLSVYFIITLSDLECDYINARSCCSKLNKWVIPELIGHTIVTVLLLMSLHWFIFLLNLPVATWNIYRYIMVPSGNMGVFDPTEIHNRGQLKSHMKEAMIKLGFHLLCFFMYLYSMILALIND
UniProt Q9BU20: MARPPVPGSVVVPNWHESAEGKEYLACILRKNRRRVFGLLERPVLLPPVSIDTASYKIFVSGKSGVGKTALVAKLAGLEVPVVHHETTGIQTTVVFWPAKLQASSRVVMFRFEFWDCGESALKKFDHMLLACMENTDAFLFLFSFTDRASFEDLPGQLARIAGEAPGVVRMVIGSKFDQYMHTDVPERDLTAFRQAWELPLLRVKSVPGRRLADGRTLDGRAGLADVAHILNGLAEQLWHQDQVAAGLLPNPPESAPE
UniProt Q9NZJ6: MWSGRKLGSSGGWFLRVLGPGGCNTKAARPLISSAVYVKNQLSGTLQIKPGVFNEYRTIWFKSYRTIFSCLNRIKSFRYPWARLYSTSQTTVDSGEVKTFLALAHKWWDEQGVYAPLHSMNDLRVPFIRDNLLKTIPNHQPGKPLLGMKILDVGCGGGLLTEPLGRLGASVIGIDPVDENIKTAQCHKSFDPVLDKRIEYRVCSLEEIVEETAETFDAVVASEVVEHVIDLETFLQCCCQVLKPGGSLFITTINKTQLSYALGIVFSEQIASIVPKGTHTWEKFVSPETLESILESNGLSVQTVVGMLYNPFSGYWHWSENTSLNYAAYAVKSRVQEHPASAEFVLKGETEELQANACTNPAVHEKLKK
UniProt Q14061: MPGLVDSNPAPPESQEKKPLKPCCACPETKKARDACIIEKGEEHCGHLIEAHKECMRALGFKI
UniProt Q7Z7A1: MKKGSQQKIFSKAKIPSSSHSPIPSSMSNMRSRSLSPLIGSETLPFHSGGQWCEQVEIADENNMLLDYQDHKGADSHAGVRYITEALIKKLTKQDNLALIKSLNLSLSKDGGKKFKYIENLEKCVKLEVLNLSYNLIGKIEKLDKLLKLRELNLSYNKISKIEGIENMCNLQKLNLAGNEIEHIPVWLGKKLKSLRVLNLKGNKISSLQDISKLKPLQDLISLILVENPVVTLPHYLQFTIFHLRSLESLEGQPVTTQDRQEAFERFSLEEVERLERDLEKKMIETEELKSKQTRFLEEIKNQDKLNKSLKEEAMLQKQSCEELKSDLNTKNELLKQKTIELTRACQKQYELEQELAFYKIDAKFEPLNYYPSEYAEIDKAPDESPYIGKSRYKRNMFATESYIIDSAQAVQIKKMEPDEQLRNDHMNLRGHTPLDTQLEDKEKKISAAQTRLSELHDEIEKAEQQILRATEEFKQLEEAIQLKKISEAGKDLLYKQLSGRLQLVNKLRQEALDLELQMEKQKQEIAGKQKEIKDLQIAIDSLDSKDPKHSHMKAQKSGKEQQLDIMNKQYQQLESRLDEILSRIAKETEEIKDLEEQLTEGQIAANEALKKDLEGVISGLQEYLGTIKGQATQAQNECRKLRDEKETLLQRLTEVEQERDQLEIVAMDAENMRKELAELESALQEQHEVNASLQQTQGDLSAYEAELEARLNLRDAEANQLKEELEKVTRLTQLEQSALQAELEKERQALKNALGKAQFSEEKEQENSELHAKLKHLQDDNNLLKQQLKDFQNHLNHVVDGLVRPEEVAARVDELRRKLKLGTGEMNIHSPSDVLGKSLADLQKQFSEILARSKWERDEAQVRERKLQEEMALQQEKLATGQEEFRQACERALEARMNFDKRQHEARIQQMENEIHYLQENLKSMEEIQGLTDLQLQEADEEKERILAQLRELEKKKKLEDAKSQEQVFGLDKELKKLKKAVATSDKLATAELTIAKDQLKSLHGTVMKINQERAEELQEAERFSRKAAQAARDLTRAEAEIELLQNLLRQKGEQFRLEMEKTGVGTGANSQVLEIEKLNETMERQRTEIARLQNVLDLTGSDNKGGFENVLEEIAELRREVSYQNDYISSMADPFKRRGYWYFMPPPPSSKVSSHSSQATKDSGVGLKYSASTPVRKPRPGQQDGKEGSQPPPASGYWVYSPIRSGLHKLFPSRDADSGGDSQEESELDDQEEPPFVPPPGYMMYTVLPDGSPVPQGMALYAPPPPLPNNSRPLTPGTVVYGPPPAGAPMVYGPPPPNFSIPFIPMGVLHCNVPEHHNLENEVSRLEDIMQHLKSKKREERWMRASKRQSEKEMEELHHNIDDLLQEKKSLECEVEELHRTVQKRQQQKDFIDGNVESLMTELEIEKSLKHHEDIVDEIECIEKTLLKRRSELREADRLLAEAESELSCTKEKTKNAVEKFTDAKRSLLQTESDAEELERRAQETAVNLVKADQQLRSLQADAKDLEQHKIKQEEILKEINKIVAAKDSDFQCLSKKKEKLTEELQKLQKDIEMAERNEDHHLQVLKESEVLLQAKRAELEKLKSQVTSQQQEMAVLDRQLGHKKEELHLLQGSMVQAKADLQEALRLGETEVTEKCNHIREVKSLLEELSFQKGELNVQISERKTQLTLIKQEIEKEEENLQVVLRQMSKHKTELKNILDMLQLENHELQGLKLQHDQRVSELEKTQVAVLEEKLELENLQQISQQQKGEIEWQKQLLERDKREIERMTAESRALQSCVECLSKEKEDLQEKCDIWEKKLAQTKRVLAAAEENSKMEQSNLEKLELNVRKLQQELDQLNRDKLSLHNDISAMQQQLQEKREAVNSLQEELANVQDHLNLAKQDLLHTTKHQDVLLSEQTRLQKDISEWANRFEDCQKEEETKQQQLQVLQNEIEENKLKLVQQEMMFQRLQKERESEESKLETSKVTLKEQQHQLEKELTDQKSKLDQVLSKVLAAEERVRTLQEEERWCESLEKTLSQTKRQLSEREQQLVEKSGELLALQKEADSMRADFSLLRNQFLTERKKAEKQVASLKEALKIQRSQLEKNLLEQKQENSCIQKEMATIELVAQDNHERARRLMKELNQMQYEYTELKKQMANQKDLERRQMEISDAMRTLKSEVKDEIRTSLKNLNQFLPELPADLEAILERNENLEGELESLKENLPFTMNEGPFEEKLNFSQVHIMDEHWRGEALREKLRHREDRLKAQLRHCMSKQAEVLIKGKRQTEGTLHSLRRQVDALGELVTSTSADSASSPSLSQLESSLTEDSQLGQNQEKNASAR
UniProt Q9H8M5: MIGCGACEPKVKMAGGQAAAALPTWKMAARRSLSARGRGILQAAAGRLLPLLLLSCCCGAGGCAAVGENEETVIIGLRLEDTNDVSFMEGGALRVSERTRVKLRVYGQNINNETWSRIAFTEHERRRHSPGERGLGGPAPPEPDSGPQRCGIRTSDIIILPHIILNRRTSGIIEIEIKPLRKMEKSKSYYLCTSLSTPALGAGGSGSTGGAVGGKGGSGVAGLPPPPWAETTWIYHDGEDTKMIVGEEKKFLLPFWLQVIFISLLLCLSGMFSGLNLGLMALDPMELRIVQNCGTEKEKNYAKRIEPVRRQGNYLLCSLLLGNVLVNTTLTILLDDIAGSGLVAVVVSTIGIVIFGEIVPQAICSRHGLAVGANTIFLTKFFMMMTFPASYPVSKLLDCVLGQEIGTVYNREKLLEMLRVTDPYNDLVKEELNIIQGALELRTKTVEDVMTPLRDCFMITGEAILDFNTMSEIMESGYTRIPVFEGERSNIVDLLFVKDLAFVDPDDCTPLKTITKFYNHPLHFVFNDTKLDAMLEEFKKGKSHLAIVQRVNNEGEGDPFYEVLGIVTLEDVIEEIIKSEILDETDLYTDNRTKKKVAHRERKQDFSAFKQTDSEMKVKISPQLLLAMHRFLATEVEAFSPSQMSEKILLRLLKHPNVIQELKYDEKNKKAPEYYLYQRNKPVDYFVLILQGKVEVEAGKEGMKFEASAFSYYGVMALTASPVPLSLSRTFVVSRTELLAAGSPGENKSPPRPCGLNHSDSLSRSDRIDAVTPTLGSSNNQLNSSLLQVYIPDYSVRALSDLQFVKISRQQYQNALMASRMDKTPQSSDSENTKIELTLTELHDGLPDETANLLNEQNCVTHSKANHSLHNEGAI
UniProt P57737: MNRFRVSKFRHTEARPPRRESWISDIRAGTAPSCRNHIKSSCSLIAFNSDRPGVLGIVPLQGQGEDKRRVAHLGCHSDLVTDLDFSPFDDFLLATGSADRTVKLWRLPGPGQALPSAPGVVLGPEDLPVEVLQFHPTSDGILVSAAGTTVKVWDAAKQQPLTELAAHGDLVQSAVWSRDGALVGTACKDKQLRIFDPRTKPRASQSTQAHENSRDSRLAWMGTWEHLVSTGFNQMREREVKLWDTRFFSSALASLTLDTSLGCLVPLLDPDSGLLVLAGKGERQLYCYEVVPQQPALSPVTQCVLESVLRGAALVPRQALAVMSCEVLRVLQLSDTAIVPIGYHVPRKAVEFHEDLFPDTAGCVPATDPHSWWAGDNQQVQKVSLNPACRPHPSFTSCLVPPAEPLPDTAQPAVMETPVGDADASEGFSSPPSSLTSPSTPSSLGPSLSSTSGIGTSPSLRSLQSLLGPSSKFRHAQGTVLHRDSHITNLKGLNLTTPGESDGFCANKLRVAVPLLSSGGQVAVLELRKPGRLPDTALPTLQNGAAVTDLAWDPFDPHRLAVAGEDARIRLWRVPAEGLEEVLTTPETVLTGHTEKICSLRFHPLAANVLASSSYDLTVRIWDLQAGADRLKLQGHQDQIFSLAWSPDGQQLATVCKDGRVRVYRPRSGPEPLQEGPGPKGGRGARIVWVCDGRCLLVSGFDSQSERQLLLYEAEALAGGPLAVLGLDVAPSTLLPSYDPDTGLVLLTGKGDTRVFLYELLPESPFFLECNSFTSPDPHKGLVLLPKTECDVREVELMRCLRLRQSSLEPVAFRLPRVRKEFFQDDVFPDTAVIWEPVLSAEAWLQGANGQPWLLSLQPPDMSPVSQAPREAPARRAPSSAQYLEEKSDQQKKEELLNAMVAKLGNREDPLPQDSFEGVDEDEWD
UniProt P61201: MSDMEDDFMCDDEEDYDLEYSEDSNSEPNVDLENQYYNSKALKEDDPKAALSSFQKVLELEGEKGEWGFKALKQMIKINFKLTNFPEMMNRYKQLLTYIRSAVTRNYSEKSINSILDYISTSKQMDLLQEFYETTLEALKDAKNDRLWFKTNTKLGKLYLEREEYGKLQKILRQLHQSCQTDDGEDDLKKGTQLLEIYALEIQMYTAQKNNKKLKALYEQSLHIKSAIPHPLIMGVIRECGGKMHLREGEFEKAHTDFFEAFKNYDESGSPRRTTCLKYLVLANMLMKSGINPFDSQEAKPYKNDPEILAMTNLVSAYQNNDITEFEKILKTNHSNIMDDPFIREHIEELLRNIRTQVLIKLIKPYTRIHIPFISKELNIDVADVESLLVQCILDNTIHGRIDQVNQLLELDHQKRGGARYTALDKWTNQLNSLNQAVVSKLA
UniProt P24311, whole entry, looked up: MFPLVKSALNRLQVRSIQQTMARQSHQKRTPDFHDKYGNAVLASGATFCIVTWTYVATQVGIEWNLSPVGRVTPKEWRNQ
UniProt Q9UNS2: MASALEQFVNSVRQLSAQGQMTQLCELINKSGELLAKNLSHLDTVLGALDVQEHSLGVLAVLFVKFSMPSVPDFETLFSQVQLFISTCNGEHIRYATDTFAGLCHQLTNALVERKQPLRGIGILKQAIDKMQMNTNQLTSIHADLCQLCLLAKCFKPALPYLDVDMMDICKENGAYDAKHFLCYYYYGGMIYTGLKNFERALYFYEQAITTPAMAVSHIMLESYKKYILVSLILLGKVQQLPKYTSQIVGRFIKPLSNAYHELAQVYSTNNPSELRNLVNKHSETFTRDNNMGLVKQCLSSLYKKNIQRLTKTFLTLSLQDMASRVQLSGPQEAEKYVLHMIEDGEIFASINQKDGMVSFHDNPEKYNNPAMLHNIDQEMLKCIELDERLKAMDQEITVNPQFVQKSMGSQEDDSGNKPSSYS
UniProt Q8WXC6: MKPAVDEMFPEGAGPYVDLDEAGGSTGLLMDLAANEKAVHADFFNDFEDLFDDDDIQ
UniProt P14406, whole entry, looked up: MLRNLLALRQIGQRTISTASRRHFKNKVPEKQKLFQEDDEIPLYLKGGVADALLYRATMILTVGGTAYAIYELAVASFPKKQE

[2] = compound: Cc1cc(Nc2cc(CN3CCOCC3)c3nc(C)c(Cc4ccc(Cl)cc4F)n3n2)n[nH]1 [gandotinib]
How it was run: as §1

[3] = compound: Cc1cccc(CC(=O)N2CCc3c2ccc(-c2cn(C)c4ncnc(N)c24)c3F)n1
How it was run: as §1

[4] = compound: NC1(c2ccc(-c3nc4ccn5c(=O)[nH]nc5c4cc3-c3ccccc3)cc2)CCC1
How it was run: as §1

[5] = compound: C[C@@H](Oc1cc(-c2cnn(C3CCNCC3)c2)cnc1N)c1c(Cl)ccc(F)c1Cl [crizotinib]
How it was run: as §1

[6] = compound: Cc1cc(Nc2cc(N3CCN(C)CC3)nc(Sc3ccc(NC(=O)C4CC4)cc3)n2)n[nH]1 [tozasertib]
How it was run: as §1

[7] = compound: Cc1ccc(-n2nc(C(C)(C)C)cc2NC(=O)Nc2ccc(OCCN3CCOCC3)c3ccccc23)cc1 [doramapimod]
How it was run: as §1

[8] = compound: Cc1cn(-c2cc(NC(=O)c3ccc(C)c(Nc4nccc(-c5cccnc5)n4)c3)cc(C(F)(F)F)c2)cn1 [nilotinib]
How it was run: as §1

[9] = compound: Cc1nc(Nc2n[nH]c3c2CN(C(=O)N[C@H](CN(C)C)c2ccccc2)C3(C)C)c2sccc2n1
How it was run: as §1

[10] = compound: Cc1ncc(-c2ccnc(Nc3ccc(S(C)(=O)=O)cc3)n2)n1C(C)C
How it was run: as §1

[11] = compound: Cn1cc(CNCC2CCN(c3ncc(C(=O)NO)cn3)CC2)c2ccccc21 [quisinostat]
How it was run: as §1

[12] = compound: Cn1cncc1[C@@](N)(c1ccc(Cl)cc1)c1ccc2c(c1)c(-c1cccc(Cl)c1)cc(=O)n2C [tipifarnib]
How it was run: as §1

[13] = compound: NC(=O)Nc1cc(-c2cccc(F)c2)sc1C(=O)N[C@H]1CCCNC1
How it was run: as §1

[14] = compound: CS(=O)(=O)CCNCc1ccc(-c2ccc3ncnc(Nc4ccc(OCc5cccc(F)c5)c(Cl)c4)c3c2)o1 [lapatinib]
How it was run: as §1

[15] = compound: CS(=O)(=O)N1CCN(Cc2cc3nc(-c4cccc5[nH]ncc45)nc(N4CCOCC4)c3s2)CC1 [pictilisib]
How it was run: as §1

[16] = compound: C[C@H](Nc1ncnc2nc[nH]c12)c1cc2cccc(Cl)c2c(=O)n1-c1ccccc1 [duvelisib]
How it was run: as §1

[17] = compound: Cc1ccc(NC(=O)c2ccc(CN3CC[C@H](N(C)C)C3)c(C(F)(F)F)c2)cc1Nc1nccc(-c2cncnc2)n1 [bafetinib]
How it was run: as §1

[18] = compound: Cc1nc(Nc2ncc(C(=O)Nc3c(C)cccc3Cl)s2)cc(N2CCN(CCO)CC2)n1 [dasatinib]
How it was run: as §1

[19] = compound: Cn1cc(-c2ccc3c(c2)CCN3C(=O)Cc2cccc(C(F)(F)F)c2)c2c(N)ncnc21
How it was run: as §1

[20] = compound: NC(=O)c1cnc(N[C@@H]2CCCC[C@@H]2N)nc1Nc1cccc(-n2nccn2)c1
How it was run: as §1

| Target | log2 fold change [1] | log2 fold change [2] | log2 fold change [3] | log2 fold change [4] | log2 fold change [5] | log2 fold change [6] | log2 fold change [7] | log2 fold change [8] | log2 fold change [9] | log2 fold change [10] | log2 fold change [11] | log2 fold change [12] | log2 fold change [13] | log2 fold change [14] | log2 fold change [15] | log2 fold change [16] | log2 fold change [17] | log2 fold change [18] | log2 fold change [19] | log2 fold change [20] |
| --- | --- | --- | --- | --- | --- | --- | --- | --- | --- | --- | --- | --- | --- | --- | --- | --- | --- | --- | --- | --- |
| COL1A1 (UniProt P02452) | inactive: 0.046 | inactive: 0.032 | inactive: -0.072 | inactive: -0.025 |  |  |  |  |  |  |  |  |  |  |  |  |  |  |  |  |
| COQ8B (UniProt Q96D53) | inactive: -0.303 | inactive: 0.163 | inactive: 0.175 | inactive: 0.076 | inactive: -0.145 | inactive: 0.024 | inactive: -0.065 | inactive: -0.02 | inactive: -0.209 | inactive: -0.241 | inactive: 0.036 | inactive: -0.035 | inactive: -0.004 |  |  |  |  |  |  |  |
| CNIH4 (UniProt Q9P003) |  |  |  | inactive: -0.136 | inactive: -0.055 | inactive: -0.06 | inactive: -0.082 | inactive: 0.074 | inactive: -0.327 | inactive: -0.12 | inactive: -0.068 | active: -0.515 | inactive: 0.088 | inactive: 0.005 | inactive: -0.139 | inactive: 0.092 | inactive: -0.248 | inactive: 0.132 | inactive: 0.063 | inactive: 0.076 |
| CPLANE2 (UniProt Q9BU20) |  |  |  | inactive: 0.115 | inactive: -0.094 |  | inactive: 0.118 |  |  |  | inactive: -0.012 |  | inactive: 0.094 |  |  |  |  |  |  |  |
| COQ3 (UniProt Q9NZJ6) | inactive: -0.031 | inactive: -0.002 | inactive: 0.044 | inactive: 0.078 |  | inactive: 0.005 |  | inactive: -0.005 | inactive: -0.021 | inactive: 0.052 |  | inactive: -0.013 |  | inactive: 0.016 | inactive: 0.008 |  | inactive: -0.054 |  |  | inactive: -0.012 |
| CNOT7 (UniProt H0YBT3) | inactive: -0.154 | inactive: -0.127 | inactive: 0.186 |  | inactive: 0.019 |  | inactive: 0.093 |  |  |  | inactive: -0.31 |  | inactive: -0.025 |  |  |  |  |  |  |  |
| COX17 (UniProt Q14061) | inactive: 0.178 | inactive: -0.113 | inactive: -0.102 | inactive: 0.028 | inactive: -0.003 |  | inactive: -0.139 | inactive: -0.13 | inactive: -0.272 | inactive: -0.198 | inactive: -0.224 | inactive: -0.082 | inactive: 0.053 | inactive: 0.061 |  |  |  |  |  | inactive: -0.02 |
| CNTRL (UniProt Q7Z7A1) | inactive: -0.08 | inactive: 0.088 | inactive: 0.126 | inactive: -0.035 | inactive: -0.032 | inactive: -0.022 | inactive: 0.056 | inactive: 0.009 | inactive: 0.025 | inactive: -0.002 | inactive: -0.11 | inactive: -0.052 | inactive: 0.002 |  | inactive: -0.019 | inactive: 0.024 | inactive: -0.039 | inactive: 0.035 | inactive: -0.007 |  |
| CNNM2 (UniProt Q9H8M5) | inactive: -0.039 | inactive: -0.064 | inactive: 0.036 | inactive: -0.006 | inactive: 0.021 | inactive: -0.078 | inactive: -0.026 |  |  |  | inactive: 0.217 |  | inactive: -0.077 | inactive: 0.006 |  | inactive: 0.041 |  | inactive: -0.021 | inactive: -0.044 | inactive: -0.001 |
| CNK3/IPCEF1 isoform 2 (UniProt G9CGD6) | active: -1.84 | inactive: 0.326 | inactive: 0.4 | inactive: 0.168 |  | inactive: 0.105 |  |  |  |  |  |  |  |  |  | inactive: 0.129 |  | inactive: -0.131 | inactive: 0.002 |  |
| COL25A1 (UniProt Q9BXS0) |  |  |  |  |  |  |  | inactive: 0.125 | inactive: 0.114 | inactive: 0.119 |  | inactive: -0.166 |  | inactive: -0.13 | inactive: -0.216 |  | inactive: -0.34 |  |  | inactive: -0.056 |
| COMTD1 (UniProt Q86VU5) |  |  |  | inactive: -0.002 | inactive: -0.229 | inactive: 0.049 | inactive: -0.029 | inactive: 0.311 | inactive: -0.273 | inactive: 0.014 | inactive: 0.021 | inactive: -0.135 | inactive: -0.031 | inactive: 0.113 | inactive: 0.033 | inactive: 0.028 | inactive: -0.119 | inactive: -0.058 | inactive: 0.001 | inactive: 0.093 |
| CORO7 (UniProt P57737) | inactive: -0.139 | inactive: 0 | inactive: -0.335 | inactive: 0.183 | inactive: -0.004 | inactive: 0.092 | inactive: 0.016 | inactive: -0.102 | inactive: 0.136 | inactive: -0.072 | inactive: 0.171 | inactive: -0.051 | inactive: 0.088 |  |  | inactive: -0.084 |  | inactive: 0.024 | inactive: 0.119 |  |
| CPEB3 (UniProt Q8NE35) |  |  |  | inactive: -0.106 | inactive: 0.038 |  | inactive: 0.053 |  |  |  | inactive: 0.002 |  | inactive: -0.039 |  |  |  |  |  |  |  |
| CNOT2 (UniProt F8VRS8) |  |  |  | inactive: -0.122 |  |  |  |  |  |  |  |  |  |  |  |  |  |  |  |  |
| COPS2 (UniProt P61201) | inactive: -0.024 | inactive: 0.071 | inactive: -0.034 |  | inactive: -0.088 | inactive: -0.04 | inactive: -0.066 | inactive: -0.019 | inactive: -0.002 | inactive: -0.038 | inactive: -0.206 | inactive: -0.085 | inactive: 0.011 | inactive: 0.001 |  | inactive: -0.049 |  | inactive: 0.042 | inactive: 0.088 | inactive: 0.084 |
| COX7B (UniProt P24311) | inactive: 0.025 | inactive: 0.01 | inactive: 0.099 | inactive: 0 | inactive: 0.058 | inactive: 0.035 | inactive: 0.035 | inactive: 0.001 | inactive: 0.017 | inactive: 0.016 | inactive: 0.047 | inactive: 0.023 | inactive: -0.03 | inactive: -0.002 |  | inactive: 0.005 |  | inactive: -0.008 | inactive: 0.025 | inactive: -0.047 |
| COPS3 isoform 2 (UniProt Q9UNS2) | inactive: -0.297 | inactive: 0.121 | inactive: 0.228 |  |  | inactive: -0.132 |  | inactive: 0.192 | inactive: -0.027 | inactive: 0.237 |  | inactive: -0.003 |  | inactive: -0.144 |  |  |  |  |  | inactive: 0.298 |
| COPS9 (UniProt Q8WXC6) |  |  |  | inactive: 0.214 |  |  |  |  |  |  |  |  |  | inactive: 0.148 |  |  |  |  |  | inactive: -0.074 |
| COX7A2 (UniProt P14406) | inactive: 0.041 | inactive: 0.036 | inactive: -0.014 | inactive: -0.016 | inactive: -0.048 | inactive: 0.063 | inactive: 0.047 | inactive: -0.039 | inactive: 0.012 | inactive: 0.103 | inactive: -0.052 | inactive: 0.026 | inactive: -0.02 | inactive: -0.019 | inactive: -0.053 |  | inactive: -0.043 |  |  | inactive: -0.024 |

Part of the list above, bar-delimited:
Target | log2 fold change [1] | log2 fold change [2] | log2 fold change [3] | log2 fold change [4] | log2 fold change [5] | log2 fold change [6] | log2 fold change [7] | log2 fold change [8] | log2 fold change [9] | log2 fold change [10] | log2 fold change [11] | log2 fold change [12] | log2 fold change [13] | log2 fold change [14] | log2 fold change [15] | log2 fold change [16] | log2 fold change [17] | log2 fold change [18] | log2 fold change [19] | log2 fold change [20]
COL25A1 (UniProt Q9BXS0) |  |  |  |  |  |  |  | inactive: 0.125 | inactive: 0.114 | inactive: 0.119 |  | inactive: -0.166 |  | inactive: -0.13 | inactive: -0.216 |  | inactive: -0.34 |  |  | inactive: -0.056
COMTD1 (UniProt Q86VU5) |  |  |  | inactive: -0.002 | inactive: -0.229 | inactive: 0.049 | inactive: -0.029 | inactive: 0.311 | inactive: -0.273 | inactive: 0.014 | inactive: 0.021 | inactive: -0.135 | inactive: -0.031 | inactive: 0.113 | inactive: 0.033 | inactive: 0.028 | inactive: -0.119 | inactive: -0.058 | inactive: 0.001 | inactive: 0.093

From the supplement of paper PMC10849652
